The series can be described thus: general procedure: Boc solid-phase peptide synthesis; 4-methyl benzhydrylamine resin. Conditions: whole synthesis, scale 0.5 mmol.

The source of these data is patent publication US5710123A (Centocor, Inc., priority 1995, dated 1998).

Some peptides are written in HELM: one residue between dots, names in brackets for other building blocks, links after the first $.

On to “PEPTIDE1{C.H.K.L.K.A.A.L.C.Y.[am]}$$$$V2.0”, for which the crude mass is listed as 748 mg.
Turning to “PEPTIDE1{C.L.K.K.K.H.A.L.C.Y.[am]}$$$$V2.0”, the crude mass is given as 720 mg.
In the case of “PEPTIDE1{C.S.K.K.K.L.A.L.C.Y.[am]}$$$$V2.0”, the crude mass was found to be 680 mg.
